# “And” between values parts separate entries of the source, which are not always exact repeats. Equal values may be shown once. Read-outs that look alike come from different tables or passages of the source. The source gives many values for each of these; only a part stands here.
# Tested on: ATCC strain 43300 Staphylococcus aureus
structure (smiles),measurement,setting,value
"CS(C)(=O)=O [MSM, Methylsulfonylmethane]",survival (cfu/ml),"12 μg/ml oxacillin (re-added every 24 hours) + MSM (% in label), 24 hours, three columns = triplicate platings, inoculum 3.3×10^5/ml, listed as 5% MSM",8.4 × 10^3 cfu/ml and 8.0 × 10^3 cfu/ml
same,survival (cfu/ml),"12 μg/ml oxacillin (re-added every 24 hours) + MSM (% in label), 24 hours, three columns = triplicate platings, inoculum 3.3×10^5/ml, listed as 6% MSM",8.6 × 10^3 cfu/ml and 8.5 × 10^3 cfu/ml and 8.0 × 10^3 cfu/ml
same,survival (cfu/ml),"12 μg/ml oxacillin (re-added every 24 hours) + MSM (% in label), 24 hours, three columns = triplicate platings, inoculum 3.3×10^5/ml, listed as 7% MSM",8.2 × 10^3 cfu/ml and 8.5 × 10^3 cfu/ml and 8.3 × 10^3 cfu/ml
same,survival (cfu/ml),"12 μg/ml oxacillin (re-added every 24 hours) + MSM (% in label), 24 hours, three columns = triplicate platings, inoculum 3.3×10^5/ml, listed as 8% MSM",6.6 × 10^3 cfu/ml and 6.9 × 10^3 cfu/ml
same,survival (cfu/ml),"12 μg/ml oxacillin (re-added every 24 hours) + MSM (% in label), 24 hours, three columns = triplicate platings, inoculum 3.3×10^5/ml, listed as 9% MSM",5.6 × 10^3 cfu/ml and 5.2 × 10^3 cfu/ml and 5.0 × 10^3 cfu/ml
same,survival (cfu/ml),"12 μg/ml oxacillin (re-added every 24 hours) + MSM (% in label), 24 hours, three columns = triplicate platings, inoculum 3.3×10^5/ml, listed as 10% MSM",5.8 × 10^3 cfu/ml and 5.6 × 10^3 cfu/ml and 6.0 × 10^3 cfu/ml
same,survival (cfu/ml),"12 μg/ml oxacillin (re-added every 24 hours) + MSM (% in label), 24 hours, three columns = triplicate platings, inoculum 3.3×10^5/ml, listed as 11% MSM",8.2 × 10^3 cfu/ml and 8.5 × 10^3 cfu/ml and 8.0 × 10^3 cfu/ml
same,survival (cfu/ml),"12 μg/ml oxacillin (re-added every 24 hours) + MSM (% in label), 24 hours, three columns = triplicate platings, inoculum 3.3×10^5/ml, listed as 12% MSM",7.0 × 10^3 cfu/ml and 7.3 × 10^3 cfu/ml
same,survival (cfu/ml),"12 μg/ml oxacillin (re-added every 24 hours) + MSM (% in label), 24 hours, three columns = triplicate platings, inoculum 3.3×10^5/ml, listed as 13% MSM",9.0 × 10^3 cfu/ml and 8.7 × 10^3 cfu/ml and 9.2 × 10^3 cfu/ml
same,survival (cfu/ml),"12 μg/ml oxacillin (re-added every 24 hours) + MSM (% in label), 24 hours, three columns = triplicate platings, inoculum 3.3×10^5/ml, listed as 14% MSM",1.00 × 10^4 cfu/ml and 1.02 × 10^4 cfu/ml and 1.01 × 10^4 cfu/ml
same,survival (cfu/ml),"12 μg/ml oxacillin (re-added every 24 hours) + MSM (% in label), 24 hours, three columns = triplicate platings, inoculum 3.3×10^5/ml, listed as 15% MSM",1.29 × 10^4 cfu/ml
same,survival (cfu/ml),"12 μg/ml oxacillin + MSM (% in label), 48 hours, triplicate platings, listed as 5% MSM",4.5 × 10^3 cfu/ml and 4.0 × 10^3 cfu/ml and 4.2 × 10^3 cfu/ml
same,survival (cfu/ml),"12 μg/ml oxacillin + MSM (% in label), 48 hours, triplicate platings, listed as 6% MSM",1.7 × 10^3 cfu/ml and 1.4 × 10^3 cfu/ml
same,survival (cfu/ml),"12 μg/ml oxacillin + MSM (% in label), 48 hours, triplicate platings, listed as 7% MSM",9.0 × 10^3 cfu/ml and 8.9 × 10^3 cfu/ml and 8.5 × 10^3 cfu/ml
same,survival (cfu/ml),"12 μg/ml oxacillin + MSM (% in label), 48 hours, triplicate platings, listed as 8% MSM",4.9 × 10^3 cfu/ml and 5.4 × 10^3 cfu/ml
same,survival (cfu/ml),"12 μg/ml oxacillin + MSM (% in label), 48 hours, triplicate platings, listed as 9% MSM",2.4 × 10^3 cfu/ml and 2.5 × 10^3 cfu/ml and 2.3 × 10^3 cfu/ml
same,survival (cfu/ml),"12 μg/ml oxacillin + MSM (% in label), 48 hours, triplicate platings, listed as 10% MSM",5.6 × 10^2 cfu/ml and 5.4 × 10^2 cfu/ml
same,survival (cfu/ml),"12 μg/ml oxacillin + MSM (% in label), 48 hours, triplicate platings, listed as 11% MSM",6.4 × 10^2 cfu/ml and 5.8 × 10^2 cfu/ml and 6.5 × 10^2 cfu/ml
same,survival (cfu/ml),"12 μg/ml oxacillin + MSM (% in label), 48 hours, triplicate platings, listed as 12% MSM",3.6 × 10^2 cfu/ml and 4.0 × 10^2 cfu/ml and 4.2 × 10^2 cfu/ml
same,survival (cfu/ml),"12 μg/ml oxacillin + MSM (% in label), 48 hours, triplicate platings, listed as 13% MSM",6.8 × 10^2 cfu/ml and 5.8 × 10^2 cfu/ml
same,survival (cfu/ml),"12 μg/ml oxacillin + MSM (% in label), 48 hours, triplicate platings, listed as 14% MSM",1.0 × 10^1 cfu/ml and 1.2 × 10^1 cfu/ml and 1.1 × 10^1 cfu/ml
same,survival (cfu/ml),"12 μg/ml oxacillin + MSM (% in label), 48 hours, triplicate platings, listed as 15% MSM",5.0 × 10^3 cfu/ml and 4.5 × 10^3 cfu/ml and 4.6 × 10^3 cfu/ml
same,survival (cfu/ml),"12 μg/ml oxacillin + MSM (% in label), 48 hours, triplicate platings, listed as 16% MSM",4.2 × 10^3 cfu/ml and 5.0 × 10^3 cfu/ml and 4.3 × 10^3 cfu/ml
same,"survival, Average Log","12 μg/ml oxacillin + MSM (% in label), 72 hours, listed as 16% MSM",2.1 Log
same,survival (cfu/ml),"12 μg/ml oxacillin + MSM (% in label), 72 hours, triplicate platings, listed as 5% MSM",>3.3 × 10^5 cfu/ml
same,survival (cfu/ml),"12 μg/ml oxacillin + MSM (% in label), 72 hours, triplicate platings, listed as 6% MSM",>3.3 × 10^5 cfu/ml
same,survival (cfu/ml),"12 μg/ml oxacillin + MSM (% in label), 72 hours, triplicate platings, listed as 7% MSM",>3.3 × 10^5 cfu/ml
same,survival (cfu/ml),"12 μg/ml oxacillin + MSM (% in label), 72 hours, triplicate platings, listed as 8% MSM",>3.3 × 10^5 cfu/ml
same,survival (cfu/ml),"12 μg/ml oxacillin + MSM (% in label), 72 hours, triplicate platings, listed as 9% MSM",4.7 × 10^4 cfu/ml and 4.2 × 10^4 cfu/ml and 4.5 × 10^4 cfu/ml
same,survival (cfu/ml),"12 μg/ml oxacillin + MSM (% in label), 72 hours, triplicate platings, listed as 10% MSM",1.2 × 10^4 cfu/ml and 1.1 × 10^4 cfu/ml and 1.0 × 10^4 cfu/ml
same,survival (cfu/ml),"12 μg/ml oxacillin + MSM (% in label), 72 hours, triplicate platings, listed as 11% MSM",4.4 × 10^3 cfu/ml and 4.5 × 10^3 cfu/ml and 4.0 × 10^3 cfu/ml
same,survival (cfu/ml),"12 μg/ml oxacillin + MSM (% in label), 72 hours, triplicate platings, listed as 12% MSM",1.5 × 10^3 cfu/ml and 1.1 × 10^3 cfu/ml and 1.3 × 10^3 cfu/ml
same,survival (cfu/ml),"12 μg/ml oxacillin + MSM (% in label), 72 hours, triplicate platings, listed as 13% MSM",5.2 × 10^2 cfu/ml and 5.1 × 10^2 cfu/ml and 5.4 × 10^2 cfu/ml
same,survival (cfu/ml),"12 μg/ml oxacillin + MSM (% in label), 72 hours, triplicate platings, listed as 14% MSM",1.1 × 10^2 cfu/ml and 1.2 × 10^2 cfu/ml
same,survival (cfu/ml),"12 μg/ml oxacillin + MSM (% in label), 72 hours, triplicate platings, listed as 15% MSM",2.3 × 10^2 cfu/ml and 2.2 × 10^2 cfu/ml and 1.2 × 10^2 cfu/ml
same,survival (cfu/ml),"12 μg/ml oxacillin + MSM (% in label), 72 hours, triplicate platings, listed as 16% MSM",1.1 × 10^2 cfu/ml and 1.2 × 10^2 cfu/ml and 1.6 × 10^2 cfu/ml
same,"survival, Average Log","12 μg/ml oxacillin + MSM (% in label), 96 hours, listed as 5% MSM",5.5 Log
same,"survival, Average Log","12 μg/ml oxacillin + MSM (% in label), 96 hours, listed as 6% MSM",5.5 Log
same,"survival, Average Log","12 μg/ml oxacillin + MSM (% in label), 96 hours, listed as 7% MSM",5.5 Log
same,"survival, Average Log","12 μg/ml oxacillin + MSM (% in label), 96 hours, listed as 8% MSM",5.5 Log
same,"survival, Average Log","12 μg/ml oxacillin + MSM (% in label), 96 hours, listed as 9% MSM",5.5 Log
same,"survival, Average Log","12 μg/ml oxacillin + MSM (% in label), 96 hours, listed as 10% MSM",5.5 Log
same,"survival, Average Log","12 μg/ml oxacillin + MSM (% in label), 96 hours, listed as 11% MSM",5.5 Log
same,"survival, Average Log","12 μg/ml oxacillin + MSM (% in label), 96 hours, listed as 12% MSM",3.8 Log
same,"survival, Average Log","12 μg/ml oxacillin + MSM (% in label), 96 hours, listed as 13% MSM",3.2 Log
same,"survival, Average Log","12 μg/ml oxacillin + MSM (% in label), 96 hours, listed as 14% MSM",1.8 Log
same,"survival, Average Log","12 μg/ml oxacillin + MSM (% in label), 96 hours, listed as 15% MSM",2.1 Log
same,"survival, Average Log","12 μg/ml oxacillin + MSM (% in label), 96 hours, listed as 16% MSM",2.2 Log
same,survival (cfu/ml),"12 μg/ml oxacillin + MSM (% in label), 96 hours, triplicate platings, listed as 5% MSM",>3.3 × 10^5 cfu/ml
same,survival (cfu/ml),"12 μg/ml oxacillin + MSM (% in label), 96 hours, triplicate platings, listed as 6% MSM",>3.3 × 10^5 cfu/ml
same,survival (cfu/ml),"12 μg/ml oxacillin + MSM (% in label), 96 hours, triplicate platings, listed as 7% MSM",>3.3 × 10^5 cfu/ml
same,survival (cfu/ml),"12 μg/ml oxacillin + MSM (% in label), 96 hours, triplicate platings, listed as 8% MSM",>3.3 × 10^5 cfu/ml
same,survival (cfu/ml),"12 μg/ml oxacillin + MSM (% in label), 96 hours, triplicate platings, listed as 9% MSM",>3.3 × 10^5 cfu/ml
same,survival (cfu/ml),"12 μg/ml oxacillin + MSM (% in label), 96 hours, triplicate platings, listed as 10% MSM",>3.3 × 10^5 cfu/ml
same,survival (cfu/ml),"12 μg/ml oxacillin + MSM (% in label), 96 hours, triplicate platings, listed as 11% MSM",>3.3 × 10^5 cfu/ml
same,survival (cfu/ml),"12 μg/ml oxacillin + MSM (% in label), 96 hours, triplicate platings, listed as 12% MSM",6.8 × 10^3 cfu/ml and 7.0 × 10^3 cfu/ml
same,survival (cfu/ml),"12 μg/ml oxacillin + MSM (% in label), 96 hours, triplicate platings, listed as 13% MSM",1.6 × 10^3 cfu/ml and 1.7 × 10^3 cfu/ml and 1.2 × 10^3 cfu/ml
same,survival (cfu/ml),"12 μg/ml oxacillin + MSM (% in label), 96 hours, triplicate platings, listed as 14% MSM",6.0 × 10^1 cfu/ml and 5.0 × 10^1 cfu/ml
same,survival (cfu/ml),"12 μg/ml oxacillin + MSM (% in label), 96 hours, triplicate platings, listed as 15% MSM",1.2 × 10^2 cfu/ml and 1.3 × 10^2 cfu/ml
same,survival (cfu/ml),"12 μg/ml oxacillin + MSM (% in label), 96 hours, triplicate platings, listed as 16% MSM",1.4 × 10^2 cfu/ml and 1.6 × 10^2 cfu/ml
same,"survival, Average Log","12 μg/ml oxacillin + MSM (% in label), 120 hours, listed as 5% MSM",5.5 Log
same,"survival, Average Log","12 μg/ml oxacillin + MSM (% in label), 120 hours, listed as 6% MSM",5.5 Log
same,"survival, Average Log","12 μg/ml oxacillin + MSM (% in label), 120 hours, listed as 7% MSM",5.5 Log
